PubChem BioAssay AID504786, Drosophila RNAi Screening Center – 2011

Assay: 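Knock-downs reducing HIF reporter induction by the iron chelator DFO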 (primary screen)
Cells: Drosophila S2 cells with a stable HIF luciferase reporter
Reagents: long dsRNA against Drosophila genes, about 0.2 µg dsRNA per well of a 384-well plate
Timing: three days of knock-down, then 20 h of DFO before reading
Conditions: desferrioxamine (DFO) at 100 µM, an iron chelator that mimics hypoxia, for 20 h
Measurement: 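Firefly luciferase driven by the mouse ldh-a hypoxia-response element, measured after 20 h of 100 µM DFO; z-scores per plate, higher means more signal lost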
Scale: z-score: higher = stronger loss of HIF reporter signal
The screen tested about 21,000 reagents; shown is an unselected part of those with a known target gene and a result. 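Primary screen; positive scores mean lost reporter signal, so the sign may be inverted from the usual convention.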 The numbers tell different reagents against one gene apart. Names joined by + are all predicted targets of the reagent.

Gene | dsRNA no. | z-score, replicate 1 | z-score, replicate 2 | z-score, replicate 3 | z-score, replicate 4
CG5327 | 1 | -0.4 | -0.3 | – | –
msl-3 | 1 | -0.2 | -0.2 | – | –
Cap-G | 1 | -0.4 | -0.2 | – | –
Cap-G | 2 | -0.4 | -0.2 | – | –
aln | 1 | -0.2 | -0.9 | – | –
CG5265 | 1 | 0.2 | 0.2 | – | –
jar | 1 | -0.4 | -0.1 | – | –
alpha-Catr | 1 | -0.3 | -0.2 | – | –
Ciao1 | 1 | -0.4 | -0.4 | – | –
CG10919 | 1 | -0.2 | -0.5 | – | –
CG17230 | 1 | -0.4 | -0.5 | – | –
CG42506 (retired record) + CG43759 | 1 | -0.2 | -0.3 | – | –
CG42506 (retired record) + CG43759 | 2 | 1.6 | 1.2 | – | –
CG4681 | 1 | -0.2 | -0.2 | – | –
CG9121 | 1 | -0.1 | -0.2 | – | –
Oatp30B | 1 | -0.3 | -0.6 | – | –
ApepP | 1 | 0.1 | -0.1 | – | –
Ir56a | 1 | -0.4 | -0.2 | – | –
klg | 1 | 0.1 | 0.1 | – | –
klg | 2 | -0.2 | -0.6 | – | –
sdk | 1 | -0.2 | -0.4 | – | –
CG16922 (retired record) | 1 | 1.5 | 0.1 | – | –
PQBP1 | 1 | 0.1 | 0.6 | – | –
Shc | 1 | 0.4 | 0.7 | – | –
ctp | 1 | 0.8 | 0.8 | – | –
CG42246 | 1 | -0.2 | -0.2 | – | –
CG12984 | 1 | -0.3 | -0.3 | – | –
CG9514 | 1 | -0.4 | -0.2 | – | –
CG9514 | 2 | -0.1 | -0.8 | – | –
dpr13 | 1 | -0.4 | 0.3 | – | –
dpr13 | 2 | -0.3 | 0.3 | – | –
Dh31-R | 1 | 0.3 | 0.5 | – | –
Dh31-R | 2 | -0.4 | -0.3 | – | –
borr | 1 | 0 | -0.5 | – | –
Smr | 1 | 1.4 | 3.8 | – | –
Smr | 2 | 1.4 | 2.7 | – | –
Stacl + CG8179 (retired record) | 1 | 1.4 | 1.4 | 4.8 | 2.8
CG10324 | 1 | -0.2 | 0 | – | –
Alg9 | 1 | -0.3 | -0.1 | – | –
sba | 1 | -0.1 | -0.5 | – | –
sba | 2 | 0.1 | -0.2 | -0.1 | -0.2
CG42516 + Pbp49 | 1 | -0.3 | -0.4 | – | –
CG9471 | 1 | -0.4 | -0.6 | – | –
CG30487 | 1 | -0.3 | -0.2 | – | –
Gyc32E | 1 | -0.3 | -0.4 | – | –
Usp10 | 1 | -0.2 | 0.2 | – | –
Usp10 | 2 | -0.2 | -0.4 | – | –
Adk3 | 1 | -0.3 | -0.3 | – | –
PolA1 | 1 | 0.1 | 0.9 | – | –
CG42337 | 1 | -0.2 | -0.5 | – | –
CG42337 | 2 | 2.6 | -0.2 | – | –
stmA | 1 | -0.1 | -0.3 | – | –
stmA | 2 | -0.2 | -0.2 | – | –
Tat | 1 | -0.4 | 0 | – | –
Men | 1 | 0.2 | 0 | – | –
Men | 2 | -0.2 | -0.3 | -0.8 | -0.5
pnt | 1 | -0.1 | -0.7 | – | –
mthl9 | 1 | -0.3 | -0.4 | – | –
RAF2 | 1 | -0.5 | -0.4 | – | –
RAF2 | 2 | -0.6 | -1.2 | – | –
mxt | 1 | -0.2 | -0.4 | – | –
mrva | 1 | -0.3 | -0.4 | -0.4 | -0.3
Ork1 | 1 | -0.2 | 0.1 | – | –
Hrb98DE | 1 | 0.1 | 0.6 | – | –
CG6454 | 1 | -0.3 | -0.8 | – | –
prim | 1 | -0.3 | -0.6 | – | –
CG9411 | 1 | -0.3 | -0.4 | – | –
qless | 1 | 0.7 | 0.4 | – | –
qless | 2 | 0.6 | 1 | – | –
eIF2Bgamma | 1 | -0.3 | -1.2 | – | –
mRpL42 | 1 | 0.7 | 1 | – | –
CG5493 + CG5327 | 1 | -0.4 | -0.5 | – | –
CG5808 | 1 | -0.1 | 0 | – | –
CycG | 1 | 0 | -0.3 | – | –
Prp5 | 1 | 0.2 | 0.7 | – | –
CR32745 | 1 | -0.1 | -0.1 | – | –
Qsox2 | 1 | -0.2 | -0.2 | – | –
CG11398 | 1 | -0.4 | 0.3 | – | –
x16 | 1 | 0.5 | 0.9 | – | –
x16 | 2 | -0.3 | -0.2 | – | –
Tsp3A | 1 | -0.4 | -0.4 | – | –
CG2816 | 1 | -0.4 | -0.3 | – | –
CG14634 | 1 | -0.2 | -0.6 | – | –
